Assay results from PubChem BioAssay AID280 (DTP/NCI, 2004).
The list does not hold the whole screen: it is rich in T/C values a quarter to a half above the control, in often repeated tests (any T/C) and in doses without a T/C. Other doses and runs of a compound stand elsewhere. T/C: endpoint of the treated group in % of that of the vehicle group. Some doses have a count of surviving animals in place of a T/C: the source files T/C as zero there, which appears to mark a toxic dose or a test without result, not a measured value. Some doses without a T/C left all or most animals alive at the check, yet need not have been tolerated: the source hardly ever lists a survival T/C far under the control, and the zero likely stands for such cases as well. Counts of survivors are from the toxicity check (mostly the fifth day) where no day follows; animals may have died later. Schedule codes are those of the source, taken here to give the interval after Q, in days (D) or hours (H), and the number of doses after X. Some entries hold several experiments; their values stand side by side, smallest first. Where survival is the endpoint, this PubChem deposit counts one and a half times the control or more as active, and values a quarter to a half above the control carry no call in these data; other NCI protocols may use other cut-offs. Some T/C values are followed by the survivors on the day toxicity was checked, most often the fifth; without a count, all were alive then.

Test system: nude mice, LOX melanoma ip, survival T/C
Assay: NCI In Vivo Anticancer Drug Screen. Data for tumor model Human Amelanotic Melanoma (LOX) (intraperitoneal) in NU/NU BALB/C (nude) mice
Details: T/C endpoint: median survival time, higher T/C = longer survival
Description: The antitumor activity of compounds was measured in mice bearing transplantable tumors. Survival or tumor size were measured and the results are expressed as the measurement made in the treated group (T) divided by the measurement made in the vehicle treated control group (C). The tumor model used in this assay is Human Amelanotic Melanoma (LOX) (intraperitoneal) in NU/NU BALB/C (nude) mice

[1] = dose: 600.0 mg/kg/injection, schedule: Q04DX003 (ip), vehicle: saline with Tween-80
[2] = dose: 100.0 mg/kg/injection, schedule: Q04DX003 (ip), vehicle: DMSO
[3] = dose: 200.0 mg/kg/injection, schedule: Q04DX003 (ip), vehicle: saline with Tween-80
[4] = dose: 150.0 mg/kg/injection, schedule: Q04DX003 (ip), vehicle: saline with Tween-80
[5] = dose: 1200.0 mg/kg/injection, schedule: Q04DX003 (ip), vehicle: saline with Tween-80
[6] = dose: 400.0 mg/kg/injection, schedule: Q04DX003 (ip), vehicle: saline with Tween-80

**Q.** Which survivor count (dose: 300.0 mg/kg/injection, schedule: Q04DX003 (ip), vehicle: saline) does the source give for `c1cn[nH]c1` here?
**A.** 0 of 6 on day 10

**Q.** And the survivor count (dose: 600.0 mg/kg/injection, schedule: Q04DX003 (ip), vehicle: saline)?
**A.** 2 of 6 on day 10

**Q.** And the survivor count (dose: 1200.0 mg/kg/injection, schedule: Q04DX003 (ip), vehicle: saline)?
**A.** 0 of 6 on day 10

**Q.** How did the T/C (dose: 18.75 mg/kg/injection, schedule: Q04DX003 (ip), vehicle: saline with Tween-80) turn out when `CCOC(=O)C1=C(C)O/C(=C/c2cccc(Cl)c2)C1=O` was run?
**A.** 147 % of control

**Q.** How did the survivor count [1] turn out when `COc1ccc(C[C@@H]2NC[C@@H](O)[C@@H]2OC(C)=O)cc1` was run?
**A.** 1 of 6 on day 10

**Q.** With `O=C(Nc1cccc(O)c1)C(Cl)=C(Cl)Cl` as the compound, how does the survivor count [2] read?
**A.** 3 of 6 on day 10

**Q.** With `CC1c2ccccc2CC(CCN(C)C)c2ccccc21` (centres undefined) as the compound, how does the survivor count [3] read?
**A.** 0 of 6 on day 10

**Q.** `C/C(=N\NC(=S)N1CCN(c2ccccn2)CC1)c1ccccn1` was tested. Which survivor count (dose: 160.0 mg/kg/injection, schedule: Q04DX003 (ip), vehicle: water) did it give?
**A.** 0 of 6 on day 10

**Q.** Which results are given for `O=C1C2=C(C(=O)c3cnccc31)C1C=CC2CC1` (centres undefined)?
**A.** survivor count (dose: 12.5 mg/kg/injection, schedule: Q04DX003 (ip), vehicle: DMSO): 6 of 6 on day 10; survivor count (dose: 50.0 mg/kg/injection, schedule: Q04DX003 (ip), vehicle: DMSO): 6 of 6 on day 10; survivor count [2]: 2 of 6 on day 10; survivor count (dose: 200.0 mg/kg/injection, schedule: Q04DX003 (ip), vehicle: DMSO): 0 of 6 on day 10

**Q.** How did the T/C (dose: 111.11 mg/kg/injection, schedule: Q04DX003 (ip), vehicle: saline with Tween-80) turn out when `CCOC(=O)Nc1cc2c(c(N)n1)N=C(c1ccc3ccccc3c1)CN2` was run?
**A.** 141 % of control

**Q.** And the survivor count (dose: 309.0 mg/kg/injection, schedule: Q04DX003 (ip), vehicle: saline with Tween-80)?
**A.** 2 of 6 on day 10

**Q.** Which T/C (dose: 16.0 mg/kg/injection, schedule: Q01DX001 (ip), vehicle: saline) does the source give for `Cc1c(N)nc([C@H](CC(N)=O)NC[C@H](N)C(N)=O)nc1C(=O)N[C@H](C(=O)N[C@H](C)[C@@H](O)[C@H](C)C(=O)N[C@H](C(=O)NCCc1nc(-c2nc(C(=O)NCCC[S+](C)C)cs2)cs1)[C@@H](C)O)C(OC1OC(CO)C(O)C(O)C1OC1OC(CO)C(O)C(OC(N)=O)C1O)c1cnc[nH]1` (some centres undefined) here?
**A.** 134 % of control

**Q.** And the survivor count (dose: 32.0 mg/kg/injection, schedule: Q01DX015 (ip), vehicle: saline)?
**A.** 6 of 6 on day 10

**Q.** And the survivor count (dose: 64.0 mg/kg/injection, schedule: Q01DX005 (ip), vehicle: saline)?
**A.** 0 of 6 on day 10

**Q.** What about the survivor count (dose: 128.0 mg/kg/injection, schedule: Q04DX003 (ip), vehicle: saline) of the same compound?
**A.** 0 of 6 on day 10

**Q.** And the survivor count (dose: 256.0 mg/kg/injection, schedule: Q01DX001 (ip), vehicle: saline)?
**A.** 0 of 6 on day 10

**Q.** With `O=C(Nc1cc(Cl)ccc1C(=O)O)c1cccc(C[n+]2ccccc2)c1` as the compound, how does the survivor count [4] read?
**A.** 5 of 6 on day 10 and 6 of 6 on day 10

**Q.** And the survivor count (dose: 300.0 mg/kg/injection, schedule: Q04DX003 (ip), vehicle: saline with Tween-80)?
**A.** 6 of 6 on day 10

**Q.** And the survivor count [1]?
**A.** 0 of 6 on day 10

**Q.** Which results are given for `NC(=O)c1cc(Cl)nc2nc(Cl)nc(N)c12`?
**A.** survivor count (dose: 75.0 mg/kg/injection, schedule: Q04DX003 (ip), vehicle: saline with Tween-80): 6 of 6 on day 10; survivor count [5]: 6 of 6 on day 10

**Q.** Which survivor count [1] does the source give for `CS(=O)(=O)Nc1ccc(C(=O)CCN2CCCCCC2)cc1` here?
**A.** 1 of 6 on day 10

**Q.** With `COc1cc(C2CC(C)(O)Oc3cc4c(cc32)OCO4)cc(OC)c1OC` (centres undefined) as the compound, how does the survivor count (dose: 100.0 mg/kg/injection, schedule: Q04DX003 (ip), vehicle: saline with Tween-80) read?
**A.** 2 of 6 on day 10

**Q.** And the survivor count [3]?
**A.** 2 of 6 on day 10

**Q.** What about the survivor count [6] of the same compound?
**A.** 0 of 6 on day 10 and 1 of 6 on day 10

**Q.** What about the survivor count (dose: 800.0 mg/kg/injection, schedule: Q04DX003 (ip), vehicle: saline with Tween-80) of the same compound?
**A.** 0 of 6 on day 10 and 1 of 6 on day 10

**Q.** Which T/C (dose: 9.0 mg/kg/injection, schedule: Q04DX003 (ip), vehicle: suspension in saline) does the source give for `CNC(=O)c1cccc2c(Nc3ccc(NS(C)(=O)=O)cc3OC)c3cccc(C)c3nc12` here?
**A.** 147 % of control

**Q.** What about the T/C (dose: 12.5 mg/kg/injection, schedule: Q04DX003 (ip), vehicle: suspension in saline) of the same compound?
**A.** 144 % of control

**Q.** What about the T/C (dose: 25.0 mg/kg/injection, schedule: Q04DX003 (ip), vehicle: suspension in saline) of the same compound?
**A.** 148 % of control

**Q.** What about the T/C (dose: 50.0 mg/kg/injection, schedule: Q04DX003 (ip), vehicle: suspension in saline) of the same compound?
**A.** 149 % of control

**Q.** And the survivor count (dose: 100.0 mg/kg/injection, schedule: Q04DX003 (ip), vehicle: suspension in saline)?
**A.** 1 of 6 on day 10

**Q.** `O=C(NC(Cc1ccc(I)cc1)C(=O)O)c1ccc(Br)cc1` (centres undefined) was tested. Which survivor count (dose: 300.0 mg/kg/injection, schedule: Q04DX003 (ip), vehicle: other) did it give?
**A.** 1 of 6 on day 10

**Q.** Which T/C [4] does the source give for `CN=C(N)N/N=C(\C)c1ccc2sc3ccc(/C(C)=N/NC(N)=NC)cc3c2c1` here?
**A.** 143 % of control

**Q.** Which results are given for `COc1cc(C)c(C2NC(=O)c3ccccc3N2)cc1C` (centres undefined)?
**A.** T/C (dose: 75.0 mg/kg/injection, schedule: Q04DX003 (ip), vehicle: Klucel (hydroxypropylcellulose) (HPC)): 135 % of control; T/C (dose: 150.0 mg/kg/injection, schedule: Q04DX003 (ip), vehicle: Klucel (hydroxypropylcellulose) (HPC)): 149 % of control; T/C (dose: 300.0 mg/kg/injection, schedule: Q04DX003 (ip), vehicle: Klucel (hydroxypropylcellulose) (HPC)): 145 % of control

**Q.** `O=NN(CCCl)C(=O)NCCCl` was tested. Which T/C (dose: 1.25 mg/kg/injection, schedule: Q01DX015 (ip), vehicle: saline + alcohol) did it give?
**A.** 137 % of control

**Q.** What about the T/C (dose: 5.0 mg/kg/injection, schedule: Q04DX003 (ip), vehicle: saline + alcohol) of the same compound?
**A.** 138 % of control

**Q.** What about the T/C (dose: 10.0 mg/kg/injection, schedule: Q01DX001 (ip), vehicle: saline + alcohol) of the same compound?
**A.** 138 % of control

**Q.** And the T/C (dose: 10.0 mg/kg/injection, schedule: Q01DX015 (ip), vehicle: saline + alcohol)?
**A.** 148 % of control

**Q.** And the survivor count (dose: 20.0 mg/kg/injection, schedule: Q01DX015 (ip), vehicle: saline + alcohol)?
**A.** 6 of 6 on day 10

**Q.** What about the survivor count (dose: 30.0 mg/kg/injection, schedule: Q01DX005 (ip), vehicle: saline + alcohol) of the same compound?
**A.** 6 of 6 on day 10

**Q.** And the T/C (dose: 80.0 mg/kg/injection, schedule: Q04DX003 (ip), vehicle: saline + alcohol)?
**A.** 138 % of control [5 of 6 alive on day 10]

**Q.** `Cc1ccc(C(=Nc2ccccc2)N=P(c2ccccc2)(c2ccccc2)c2ccccc2)cc1` was tested. Which survivor count [3] did it give?
**A.** 2 of 6 on day 10

**Q.** With `Cc1cc(O)c2c(c1O)C(=O)C13C(=C2O)C(=O)C2C(O)C1C1C(O)C3C(=O)C3=C(O)c4c(O)cc(C)c(O)c4C(=O)C321` (centres undefined) as the compound, how does the T/C (dose: 3.13 mg/kg/injection, schedule: Q04DX003 (ip), vehicle: saline with Tween-80) read?
**A.** 135 % of control

**Q.** And the survivor count (dose: 12.5 mg/kg/injection, schedule: Q04DX003 (ip), vehicle: saline with Tween-80)?
**A.** 3 of 6 on day 10

**Q.** What about the survivor count (dose: 25.0 mg/kg/injection, schedule: Q04DX003 (ip), vehicle: saline with Tween-80) of the same compound?
**A.** 0 of 6 on day 10

**Q.** What about the survivor count (dose: 50.0 mg/kg/injection, schedule: Q04DX003 (ip), vehicle: saline with Tween-80) of the same compound?
**A.** 0 of 6 on day 10

**Q.** Which results are given for `C/C=C/C=C/c1cc2cc3c(c(O)c2c(=O)[nH]1)C1(CC3)C(O)=c2c(=O)c3c(=O)cc(OC)c(=O)c=3c(=O)c2=C1O` (centres undefined)?
**A.** T/C (dose: 0.5 mg/kg/injection, schedule: Q04DX003 (ip), vehicle: water): 128 % of control; T/C (dose: 1.0 mg/kg/injection, schedule: Q04DX003 (ip), vehicle: water): 142 % of control; T/C (dose: 4.0 mg/kg/injection, schedule: Q04DX003 (ip), vehicle: water): 148 % of control; survivor count (dose: 8.0 mg/kg/injection, schedule: Q04DX003 (ip), vehicle: water): 6 of 6 on day 10

**Q.** How did the survivor count (dose: 240.0 mg/kg/injection, schedule: Q04DX003 (ip), vehicle: Klucel (hydroxypropylcellulose) (HPC)) turn out when `O=S(=O)(c1cccc(N=C=S)c1)c1cccc(N=C=S)c1` was run?
**A.** 0 of 6 on day 10

**Q.** How did the survivor count [6] turn out when `COc1cc(C(CC(C)=O)c2cc3c(cc2OC(C)=O)OCO3)cc(OC)c1OC` (centres undefined) (tested in a mixture with another compound) was run?
**A.** 2 of 6 on day 10

**Q.** How did the survivor count [1] turn out when `CC(C)NC(=O)OCc1c(COC(=O)NC(C)C)c(-c2ccc(Cl)c(Cl)c2)n2c1CCC2` was run?
**A.** 3 of 6 on day 10

**Q.** What about the survivor count [5] of the same compound?
**A.** 4 of 6 on day 10
